# In all, about 320,000 compounds went through this assay and about 22,000 (6.9%) were called active. This list was built around the results that the source calls inconclusive (neither active nor inactive); the mix of calls is not that of the screen. Calls follow the shape of the dose curve; as a rule, active = well fitted inhibition curve with a large enough effect; inconclusive = small, poorly fitted or top-dose-only effect, or another doubt; inactive = no such curve, though single readings can be large or run the other way. Potencies of inconclusive entries are doubtful fits and often do not repeat.
# Test: Primary qHTS for delayed death inhibitors of the malarial parasite plastid, 96 hour incubation
# Details: P. falciparum luciferase reporter growth; series mostly up to 28.7 µM; activity change, negative = inhibition: at the top concentration
# Method in brief: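 Plates of compound plus infected erythrocytes (2% hematocrit, 0.05% parasitemia final) incubate 96 hours, 37 C, 5% CO2. Detection reagent added; reduced luminescence from the parasites' luciferase reporter flags inhibition.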
# % is scaled to controls: 0 for no effect and ±100 for the full control effect; potency is read from the fitted curve at half-maximal effect.
SMILES,"activity change, negative = inhibition",Potency
Nc1ccc2nc3c(=O)n(C4CCCCC4)c(=O)[nH]c3nc2c1,inactive: 18.8%,
CC(NC(=O)c1ccccc1Br)c1nnc(SCC(=O)NC2=NCCS2)n1C (stereo not given),,"inconclusive: 6.57 µM [inhibitor, partial curve]"
CCOc1ccc(S(=O)(=O)n2cc(-c3ccccc3)c(N)n2)cc1,,"inconclusive: 18.5 µM [inhibitor, single point]"
CC(C)(C)c1ccc2c(c1)N(CC(=O)N1CCOCC1)C(=O)CO2,,"inconclusive: 14.7 µM [inhibitor, partial curve]"
O=C(c1cccc(C(F)(F)F)c1)C1CCCN(C(=O)CCc2cnccn2)C1 (stereo not given),,"inconclusive: 18.5 µM [inhibitor, single point]"
CCOc1cc(S(=O)(=O)N2CCC(Cc3ccccc3)CC2)c(OCC)cc1-n1cnnn1,,"inconclusive: 16.5 µM [inhibitor, partial curve, poor fit]"
Cn1ncc(Cl)c1C(=O)N1CCOCC1,inactive: 210%,
O=C(Nc1ccccc1N1CCOCC1)C1CCN(S(=O)(=O)c2ccc(Cl)cc2)CC1,,"inconclusive: 13.1 µM [inhibitor, single point]"
Cc1ccc(OCCC(=O)Nc2ccc(C)c(S(=O)(=O)N3CCOCC3)c2)cc1,,"inconclusive: 11.7 µM [inhibitor, single point]"
Cc1c(Cl)cccc1NC(=O)CNC(=O)c1ccco1,inactive: -16.8%,
COc1cccc(Cn2nnc3c(=O)[nH]c(C4CCCN(C(=O)c5ccccc5Cl)C4)nc32)c1 (stereo not given),inactive: 75%,
CCN(CC)CCNC(=O)c1[nH]c2ccc(OCc3ccccc3)cc2c1C,inactive: 10.1%,
Cc1cccc(N2CCN(C3=NC(=O)C(Cc4ccccc4)S3)CC2)c1 (stereo not given),,active: 11.7 µM
CCc1nnc(NC(=O)CCC(=O)NCc2ccc(C)cc2)s1,,"inconclusive: 11.7 µM [inhibitor, single point]"
Cn1nnnc1SCC1=C(C(=O)O)N2C(=O)C(NC(=O)C3CC3c3ccccc3)C2SC1 (stereo not given),inactive: 73.1%,
CN(C)c1ccc(C(=O)Nc2ccc(S(=O)(=O)NC3=NCCCCC3)cc2)cc1,,active: 11.7 µM
Cc1ccc(-c2csc3ncnc(Sc4nnc(CN5CCCCCC5=O)o4)c23)cc1,,active: 14.7 µM
CCS(=O)c1ccccc1C(=O)OC(C)C(=O)Nc1ccc(S(=O)(=O)N2CCCC2)cc1 (stereo not given),,"inconclusive: 8.28 µM [inhibitor, partial curve, poor fit]"

# 7 structures out of the list, sorted by SMILES length, rising.
SMILES,"activity change, negative = inhibition",Potency
Cc1c(Cl)cccc1NC(=O)CNC(=O)c1ccco1,inactive: -16.8%,
Nc1ccc2nc3c(=O)n(C4CCCCC4)c(=O)[nH]c3nc2c1,inactive: 18.8%,
CC(C)(C)c1ccc2c(c1)N(CC(=O)N1CCOCC1)C(=O)CO2,,"inconclusive: 14.7 µM [inhibitor, partial curve]"
Cc1ccc(-c2csc3ncnc(Sc4nnc(CN5CCCCCC5=O)o4)c23)cc1,,active: 14.7 µM
CN(C)c1ccc(C(=O)Nc2ccc(S(=O)(=O)NC3=NCCCCC3)cc2)cc1,,active: 11.7 µM
Cn1nnnc1SCC1=C(C(=O)O)N2C(=O)C(NC(=O)C3CC3c3ccccc3)C2SC1 (stereo not given),inactive: 73.1%,
CCS(=O)c1ccccc1C(=O)OC(C)C(=O)Nc1ccc(S(=O)(=O)N2CCCC2)cc1 (stereo not given),,"inconclusive: 8.28 µM [inhibitor, partial curve, poor fit]"

# Later entries

SMILES,"activity change, negative = inhibition",Potency
CCCn1c(Nc2ccccc2C)nc2ccccc21,,"inconclusive: 18.5 µM [inhibitor, single point]"
O=C(c1ccc2c(c1)OCCO2)N1CCN(c2ccc([N+](=O)[O-])cc2)CC1,inactive: 13.8%,
O=C(/C=C/NNC(=O)c1ccc(Br)cc1)c1ccccc1,,"inconclusive: 0.37 µM [inhibitor, full curve, poor fit]"
CCOC(=O)/C=c1\s/c(=C\c2sccc2C)c(=O)n1CC(=O)NCc1ccc(C)cc1,inactive: 7.75%,
CSc1nc(N2CCOCC2)nc2ccc(C)cc12,inactive: 39.6%,
CCc1cccc(NC(=O)Nc2ccc3c(c2)OCO3)c1,,"inconclusive: 13.1 µM [inhibitor, partial curve, poor fit]"
CCOC(=O)c1c(-c2ccccc2)csc1NC(=O)CSc1nc(N)cc(N)n1,,active: 3.29 µM
CCN1CCN(C(=O)c2ccc(CNS(=O)(=O)c3cccc(OC)c3)cc2)CC1,,"inconclusive: 18.5 µM [inhibitor, partial curve, poor fit]"
COc1ccc(NC2=NCCCCC2)cc1,inactive: -8.92%,
CCn1ncc(/C=N/NC(=O)c2ccc3c(c2)OCO3)c1C,inactive: 31.5%,
O=C(Nc1ccc(N2CCOCC2)cc1)c1cc(-c2ccncc2)nc2ccccc12,,"inconclusive: 4.65 µM [inhibitor, partial curve, poor fit]"
CCO[C@H]1OC(C(=O)N2CCN(Cc3ccc4c(c3)OCO4)CC2)=C[C@@H](c2ccc(C(F)(F)F)cc2)[C@@H]1CCCO,,active: 1.47 µM
NS(=O)(=O)c1ccc(CCNC(=O)c2cc(-c3ccccn3)nc3ccc(Br)cc23)cc1,,"inconclusive: 2.62 µM [inhibitor, single point]"
COc1ccc(OC)c(CNC(=O)CCC(=O)N2Cc3cccc(OC)c3Oc3ncccc32)c1,,"inconclusive: 10.4 µM [inhibitor, single point]"
C/C=C/C(=O)Nc1nnc(C(C)C)s1,,"inconclusive: 3.7 µM [inhibitor, full curve, poor fit]"
C/C(=N\NC(=O)CN(c1ccc(C)cc1)S(C)(=O)=O)c1cccs1,,"inconclusive: 1.31 µM [inhibitor, full curve, poor fit]"
O=C(Nc1cnn(Cc2ccc(F)cc2)c1)c1cnn2c(C(F)F)cc(-c3ccccc3)nc12,,"inconclusive: 3.7 µM [inhibitor, partial curve, poor fit]"
